Drawing on PMC11395162, this text covers binding for four substances.

By UniProt entry, the sequences of proteins in these tests, tags left out. Where a name states a change or a piece, a line headed by the entry shows the natural chain unless it says otherwise.
UniProt Q9UNE7: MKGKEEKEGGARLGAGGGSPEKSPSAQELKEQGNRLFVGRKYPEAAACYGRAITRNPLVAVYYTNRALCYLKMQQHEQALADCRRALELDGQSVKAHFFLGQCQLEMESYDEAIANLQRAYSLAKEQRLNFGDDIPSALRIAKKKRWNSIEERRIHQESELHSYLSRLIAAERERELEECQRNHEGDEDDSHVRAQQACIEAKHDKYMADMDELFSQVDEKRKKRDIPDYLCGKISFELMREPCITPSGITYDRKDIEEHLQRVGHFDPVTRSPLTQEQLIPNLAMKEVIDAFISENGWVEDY

For test [1], the target named is T1, Ubiquitin like with PHD and ring finger domains 1 (UHRF1), Flag-tagged, full length (human) (UniProt Q96T88).
T1 sequence: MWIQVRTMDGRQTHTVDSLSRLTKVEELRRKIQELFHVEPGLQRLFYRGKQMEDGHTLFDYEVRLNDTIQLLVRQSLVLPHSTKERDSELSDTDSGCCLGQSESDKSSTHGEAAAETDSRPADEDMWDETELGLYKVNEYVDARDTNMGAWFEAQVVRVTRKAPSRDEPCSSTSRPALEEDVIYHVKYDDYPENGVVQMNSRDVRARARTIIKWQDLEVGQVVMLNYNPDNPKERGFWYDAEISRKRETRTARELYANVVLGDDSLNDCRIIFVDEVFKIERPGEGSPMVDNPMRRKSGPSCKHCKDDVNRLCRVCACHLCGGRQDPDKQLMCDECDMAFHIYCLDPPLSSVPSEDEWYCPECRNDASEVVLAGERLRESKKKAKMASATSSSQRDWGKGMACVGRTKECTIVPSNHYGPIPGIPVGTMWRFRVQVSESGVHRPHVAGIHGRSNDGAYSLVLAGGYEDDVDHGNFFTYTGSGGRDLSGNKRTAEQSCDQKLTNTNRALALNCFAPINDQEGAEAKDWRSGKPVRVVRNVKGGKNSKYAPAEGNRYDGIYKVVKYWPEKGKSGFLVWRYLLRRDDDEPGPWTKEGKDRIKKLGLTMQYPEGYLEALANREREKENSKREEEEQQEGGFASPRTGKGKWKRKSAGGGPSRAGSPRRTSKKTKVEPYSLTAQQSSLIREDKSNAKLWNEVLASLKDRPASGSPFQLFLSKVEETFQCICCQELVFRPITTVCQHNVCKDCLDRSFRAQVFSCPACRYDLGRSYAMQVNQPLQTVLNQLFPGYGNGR
Kind of test: co-IP; HEK293T cells transfected with tagged full-length or truncated UHRF1 and STUB1; lysates immunoprecipitated with anti-Flag or anti-HA antibodies on A/G magnetic beads, 4 °C, 12 h; immunoblot. On the technique in general: A western blot detects proteins with antibodies after separation by electrophoresis.

Test [2] has as its target T2, UHRF1 RING domain (aa724-793), truncated fragment (human) (UniProt Q96T88).
T2 sequence: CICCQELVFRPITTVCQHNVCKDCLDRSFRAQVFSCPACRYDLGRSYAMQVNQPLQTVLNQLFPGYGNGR
Described as above.

For test [3], the target named is T3, UHRF1 SRA domain (aa417-584), truncated fragment (human) (UniProt Q96T88).
T3 sequence: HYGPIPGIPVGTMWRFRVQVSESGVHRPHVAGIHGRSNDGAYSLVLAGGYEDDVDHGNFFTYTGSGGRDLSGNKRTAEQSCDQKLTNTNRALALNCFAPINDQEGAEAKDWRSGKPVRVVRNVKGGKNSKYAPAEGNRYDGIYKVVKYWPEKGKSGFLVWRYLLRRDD
Described as above.

Test [4] has as its target T4, UHRF1, full length, transfected partner of the STUB1 fragments (Fig. 1G, I) (human) (UniProt Q96T88).
T4 sequence: T1 sequence
Described as above.

Test [5] deals with T5, GST-UHRF1 (human) (UniProt Q96T88).
T5 sequence: T1 sequence
The experiment in a line: pull-down; GST, GST-STUB1 or GST-UHRF1 from E. coli BL21 on GST magnetic beads, incubated with HEK293T cell lysate at 4 °C for 4 h; immunoblot; only the target purified.

Test [6] has as its target T6, UHRF1, endogenous in TFK1 and HuCCT1 cells (human (endogenous in TFK1 and HuCCT1)) (UniProt Q96T88).
T6 sequence: T1 sequence
The experiment in a line: co-IP; endogenous proteins in TFK1 and HuCCT1 cells; IP with UHRF1/STUB1 antibody, IgG as control; immunoblot.

These are yes or no findings as the source states them, for the method shown. Binding seen in cells or lysates may run through a third protein. Some binding calls cover weakened binding; strength is not graded here. For part of these data: Where a sequence is shown, tags or fusion partners need not be part of it.

Turning to “STIP1 homology and U-Box containing protein 1 (STUB1), HA-tagged, full length (from UniProt Q9UNE7 1-303)”, the binding result in test [1], in test [2] and in test [3] was “binds” in each case.

Turning to “STUB1 TPR domain (aa26-127), truncated fragment (from UniProt Q9UNE7 26-127) (domain or fragment)”, in test [4], the binding result is recorded as “binds”.

Turning to “STUB1 in HEK293T cell lysate (prey of the GST pull-down) (from UniProt Q9UNE7 1-303)”, the binding result in test [5] is on record as “binds”.

On to “STUB1, endogenous (from UniProt Q9UNE7 1-303)”, for which the binding entry in test [6] is reported as “binds”.
